Experimental data reported in the supplement of paper PMC10849652.
Some of the results follow.

The chains behind the UniProt entries cited, without tags or fusion partners. Where a name states a change or a piece, a line headed by the entry shows the natural chain unless it says otherwise.
UniProt Q9BTE1, whole entry, looked up: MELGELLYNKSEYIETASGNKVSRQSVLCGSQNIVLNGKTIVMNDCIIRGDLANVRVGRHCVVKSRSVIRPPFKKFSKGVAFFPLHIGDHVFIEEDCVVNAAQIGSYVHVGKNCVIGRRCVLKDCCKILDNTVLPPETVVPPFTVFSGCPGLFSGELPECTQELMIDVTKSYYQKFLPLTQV
UniProt Q7Z7A3: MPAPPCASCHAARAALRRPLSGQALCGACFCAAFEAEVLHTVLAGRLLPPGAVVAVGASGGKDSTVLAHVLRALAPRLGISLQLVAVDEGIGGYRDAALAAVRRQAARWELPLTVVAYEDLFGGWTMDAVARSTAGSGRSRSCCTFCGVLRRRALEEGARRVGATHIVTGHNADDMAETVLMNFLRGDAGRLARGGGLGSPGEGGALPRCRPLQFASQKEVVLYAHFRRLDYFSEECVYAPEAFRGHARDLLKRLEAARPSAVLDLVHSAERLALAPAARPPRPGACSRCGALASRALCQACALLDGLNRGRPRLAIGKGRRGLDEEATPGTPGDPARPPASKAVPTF
UniProt Q9H1C7: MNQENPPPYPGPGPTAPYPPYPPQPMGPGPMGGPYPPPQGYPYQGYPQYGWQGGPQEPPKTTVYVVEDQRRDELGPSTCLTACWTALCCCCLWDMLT
UniProt P00167, whole entry, looked up: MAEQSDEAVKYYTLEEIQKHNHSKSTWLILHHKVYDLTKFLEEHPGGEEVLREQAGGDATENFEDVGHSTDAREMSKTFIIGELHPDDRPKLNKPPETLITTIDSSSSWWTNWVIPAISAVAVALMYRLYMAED
UniProt Q96GG9: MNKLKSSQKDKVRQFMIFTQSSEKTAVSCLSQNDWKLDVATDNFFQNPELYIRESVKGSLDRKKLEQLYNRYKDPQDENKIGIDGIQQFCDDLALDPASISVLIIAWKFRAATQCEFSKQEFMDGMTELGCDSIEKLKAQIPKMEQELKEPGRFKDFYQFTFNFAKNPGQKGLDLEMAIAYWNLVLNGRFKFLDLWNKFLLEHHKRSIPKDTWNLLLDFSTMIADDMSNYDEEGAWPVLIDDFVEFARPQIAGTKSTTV
UniProt Q9Y6A2: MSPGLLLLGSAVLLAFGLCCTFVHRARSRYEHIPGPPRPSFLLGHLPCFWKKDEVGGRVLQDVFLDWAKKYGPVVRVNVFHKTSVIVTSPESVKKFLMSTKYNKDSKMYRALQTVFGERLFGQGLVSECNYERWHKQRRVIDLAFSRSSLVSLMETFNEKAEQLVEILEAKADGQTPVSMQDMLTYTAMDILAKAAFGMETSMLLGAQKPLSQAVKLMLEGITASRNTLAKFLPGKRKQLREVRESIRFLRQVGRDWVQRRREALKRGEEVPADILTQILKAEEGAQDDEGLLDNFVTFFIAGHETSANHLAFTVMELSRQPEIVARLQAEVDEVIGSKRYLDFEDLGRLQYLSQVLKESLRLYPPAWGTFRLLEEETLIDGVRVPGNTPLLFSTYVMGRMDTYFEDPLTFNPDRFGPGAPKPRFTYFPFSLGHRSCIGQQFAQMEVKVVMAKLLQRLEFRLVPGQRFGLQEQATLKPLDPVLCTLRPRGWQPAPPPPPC
UniProt Q58WW2: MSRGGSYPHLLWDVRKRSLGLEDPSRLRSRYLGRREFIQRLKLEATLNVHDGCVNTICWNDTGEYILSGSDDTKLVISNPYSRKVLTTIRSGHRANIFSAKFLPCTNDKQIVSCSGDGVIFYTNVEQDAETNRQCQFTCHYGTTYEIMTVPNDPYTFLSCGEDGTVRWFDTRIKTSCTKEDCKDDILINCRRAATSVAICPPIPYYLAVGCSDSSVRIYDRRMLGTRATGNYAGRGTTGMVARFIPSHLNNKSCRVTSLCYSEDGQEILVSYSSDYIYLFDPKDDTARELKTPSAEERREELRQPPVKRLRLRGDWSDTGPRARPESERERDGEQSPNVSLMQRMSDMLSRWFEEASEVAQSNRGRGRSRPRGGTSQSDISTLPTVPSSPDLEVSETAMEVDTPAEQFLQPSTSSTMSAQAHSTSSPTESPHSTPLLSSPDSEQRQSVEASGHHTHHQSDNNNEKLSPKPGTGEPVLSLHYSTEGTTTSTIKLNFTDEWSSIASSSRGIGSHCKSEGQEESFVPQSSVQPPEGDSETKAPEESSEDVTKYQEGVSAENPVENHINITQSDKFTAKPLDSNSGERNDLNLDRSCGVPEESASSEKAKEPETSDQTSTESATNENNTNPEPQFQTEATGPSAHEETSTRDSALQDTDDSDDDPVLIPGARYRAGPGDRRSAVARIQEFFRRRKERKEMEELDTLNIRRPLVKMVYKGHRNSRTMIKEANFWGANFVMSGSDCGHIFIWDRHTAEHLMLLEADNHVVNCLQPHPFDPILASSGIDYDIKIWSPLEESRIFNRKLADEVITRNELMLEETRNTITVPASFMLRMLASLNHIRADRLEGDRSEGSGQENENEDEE
UniProt P50461: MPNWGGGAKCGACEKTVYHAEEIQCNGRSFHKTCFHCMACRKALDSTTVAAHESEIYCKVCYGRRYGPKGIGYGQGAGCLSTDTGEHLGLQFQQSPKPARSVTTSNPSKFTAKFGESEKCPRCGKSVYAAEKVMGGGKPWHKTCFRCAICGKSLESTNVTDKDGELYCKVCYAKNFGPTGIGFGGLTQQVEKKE
UniProt Q8NA75: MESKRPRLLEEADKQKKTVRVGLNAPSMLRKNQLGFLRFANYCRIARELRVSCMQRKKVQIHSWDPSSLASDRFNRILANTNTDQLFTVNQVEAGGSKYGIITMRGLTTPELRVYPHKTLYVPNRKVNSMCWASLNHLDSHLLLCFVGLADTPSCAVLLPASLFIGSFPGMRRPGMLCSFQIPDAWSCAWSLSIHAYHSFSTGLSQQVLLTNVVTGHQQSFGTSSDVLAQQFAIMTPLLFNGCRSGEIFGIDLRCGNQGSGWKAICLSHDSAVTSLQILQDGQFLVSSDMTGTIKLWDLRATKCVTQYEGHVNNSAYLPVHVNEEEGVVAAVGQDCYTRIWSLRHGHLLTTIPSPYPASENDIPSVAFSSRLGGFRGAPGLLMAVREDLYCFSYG
UniProt Q9UJU6: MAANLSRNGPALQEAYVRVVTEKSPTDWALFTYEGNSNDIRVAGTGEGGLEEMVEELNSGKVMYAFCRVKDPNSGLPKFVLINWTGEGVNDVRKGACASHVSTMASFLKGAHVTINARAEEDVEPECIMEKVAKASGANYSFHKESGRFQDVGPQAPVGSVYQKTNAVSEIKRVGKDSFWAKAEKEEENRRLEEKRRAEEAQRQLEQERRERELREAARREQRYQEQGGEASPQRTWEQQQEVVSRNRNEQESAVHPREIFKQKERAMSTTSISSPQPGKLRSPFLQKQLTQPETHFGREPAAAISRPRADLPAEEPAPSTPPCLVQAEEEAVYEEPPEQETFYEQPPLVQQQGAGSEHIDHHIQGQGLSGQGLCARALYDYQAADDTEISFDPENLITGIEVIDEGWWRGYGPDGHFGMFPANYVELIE
UniProt Q9UBR2: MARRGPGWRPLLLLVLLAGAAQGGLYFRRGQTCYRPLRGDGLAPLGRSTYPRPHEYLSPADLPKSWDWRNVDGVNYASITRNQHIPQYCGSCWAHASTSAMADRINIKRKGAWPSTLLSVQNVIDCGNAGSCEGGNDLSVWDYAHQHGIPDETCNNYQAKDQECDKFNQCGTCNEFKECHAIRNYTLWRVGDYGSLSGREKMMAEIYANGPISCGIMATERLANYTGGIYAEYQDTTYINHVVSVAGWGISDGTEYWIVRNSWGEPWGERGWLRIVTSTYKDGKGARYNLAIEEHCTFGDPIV
UniProt Q14203, whole entry, looked up: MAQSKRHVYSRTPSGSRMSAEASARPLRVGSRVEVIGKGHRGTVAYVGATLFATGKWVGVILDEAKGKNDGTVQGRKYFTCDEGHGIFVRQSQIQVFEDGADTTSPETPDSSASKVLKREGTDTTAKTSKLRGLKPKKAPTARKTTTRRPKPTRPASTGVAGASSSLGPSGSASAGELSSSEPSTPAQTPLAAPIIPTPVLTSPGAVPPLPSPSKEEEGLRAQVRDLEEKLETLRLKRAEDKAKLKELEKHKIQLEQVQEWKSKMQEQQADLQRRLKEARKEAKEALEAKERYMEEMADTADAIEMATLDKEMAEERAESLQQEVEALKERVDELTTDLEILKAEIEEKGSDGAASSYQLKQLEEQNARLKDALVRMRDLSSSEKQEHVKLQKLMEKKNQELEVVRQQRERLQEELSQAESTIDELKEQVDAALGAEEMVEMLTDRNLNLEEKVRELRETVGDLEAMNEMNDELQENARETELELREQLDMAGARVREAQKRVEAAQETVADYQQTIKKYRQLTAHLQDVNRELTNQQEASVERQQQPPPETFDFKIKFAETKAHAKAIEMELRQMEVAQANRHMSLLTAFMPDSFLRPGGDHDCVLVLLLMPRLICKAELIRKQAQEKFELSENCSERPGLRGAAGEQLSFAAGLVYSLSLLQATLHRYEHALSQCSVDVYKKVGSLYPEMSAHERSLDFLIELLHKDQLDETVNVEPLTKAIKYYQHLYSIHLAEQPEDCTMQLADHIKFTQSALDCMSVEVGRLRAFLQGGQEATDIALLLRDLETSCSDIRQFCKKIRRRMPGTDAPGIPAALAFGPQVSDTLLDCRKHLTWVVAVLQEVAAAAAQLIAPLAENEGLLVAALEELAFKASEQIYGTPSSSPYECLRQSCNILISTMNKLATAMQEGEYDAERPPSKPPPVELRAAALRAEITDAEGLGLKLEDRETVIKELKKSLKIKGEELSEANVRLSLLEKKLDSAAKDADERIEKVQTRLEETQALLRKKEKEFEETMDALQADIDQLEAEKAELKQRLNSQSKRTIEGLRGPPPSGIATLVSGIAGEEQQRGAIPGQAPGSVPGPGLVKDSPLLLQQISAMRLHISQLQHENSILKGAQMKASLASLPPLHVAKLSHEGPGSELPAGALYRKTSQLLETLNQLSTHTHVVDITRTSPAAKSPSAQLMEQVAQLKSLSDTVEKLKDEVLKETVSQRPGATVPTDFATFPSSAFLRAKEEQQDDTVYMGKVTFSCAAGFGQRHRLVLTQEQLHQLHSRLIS
UniProt P25774, whole entry, looked up: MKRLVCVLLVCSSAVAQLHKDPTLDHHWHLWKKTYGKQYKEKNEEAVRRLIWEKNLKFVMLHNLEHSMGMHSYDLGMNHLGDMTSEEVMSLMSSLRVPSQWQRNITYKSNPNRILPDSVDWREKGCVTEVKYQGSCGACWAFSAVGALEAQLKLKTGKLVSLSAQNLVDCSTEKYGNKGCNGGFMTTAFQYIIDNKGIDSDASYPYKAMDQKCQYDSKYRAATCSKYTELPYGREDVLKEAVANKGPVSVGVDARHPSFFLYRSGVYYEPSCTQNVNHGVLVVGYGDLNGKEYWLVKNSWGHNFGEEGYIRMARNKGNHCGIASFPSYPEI
UniProt P13498: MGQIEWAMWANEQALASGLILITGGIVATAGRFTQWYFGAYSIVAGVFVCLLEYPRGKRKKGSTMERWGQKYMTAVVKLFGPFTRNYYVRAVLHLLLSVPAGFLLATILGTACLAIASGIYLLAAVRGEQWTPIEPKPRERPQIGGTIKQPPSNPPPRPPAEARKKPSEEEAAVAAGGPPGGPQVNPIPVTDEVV
UniProt Q8WUE5: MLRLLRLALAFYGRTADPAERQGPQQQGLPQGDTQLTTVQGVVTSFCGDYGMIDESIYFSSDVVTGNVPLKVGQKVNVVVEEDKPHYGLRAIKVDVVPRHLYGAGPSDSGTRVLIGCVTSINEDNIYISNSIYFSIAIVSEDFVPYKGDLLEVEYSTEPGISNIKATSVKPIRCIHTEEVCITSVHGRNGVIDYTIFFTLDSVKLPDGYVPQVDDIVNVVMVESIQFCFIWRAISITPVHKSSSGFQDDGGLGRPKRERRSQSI
UniProt Q16527: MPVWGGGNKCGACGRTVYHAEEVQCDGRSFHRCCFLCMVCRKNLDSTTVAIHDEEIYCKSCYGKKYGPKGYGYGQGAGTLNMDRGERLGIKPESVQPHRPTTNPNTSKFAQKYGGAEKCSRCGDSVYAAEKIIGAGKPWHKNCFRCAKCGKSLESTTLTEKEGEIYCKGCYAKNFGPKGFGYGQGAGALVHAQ
UniProt P53634: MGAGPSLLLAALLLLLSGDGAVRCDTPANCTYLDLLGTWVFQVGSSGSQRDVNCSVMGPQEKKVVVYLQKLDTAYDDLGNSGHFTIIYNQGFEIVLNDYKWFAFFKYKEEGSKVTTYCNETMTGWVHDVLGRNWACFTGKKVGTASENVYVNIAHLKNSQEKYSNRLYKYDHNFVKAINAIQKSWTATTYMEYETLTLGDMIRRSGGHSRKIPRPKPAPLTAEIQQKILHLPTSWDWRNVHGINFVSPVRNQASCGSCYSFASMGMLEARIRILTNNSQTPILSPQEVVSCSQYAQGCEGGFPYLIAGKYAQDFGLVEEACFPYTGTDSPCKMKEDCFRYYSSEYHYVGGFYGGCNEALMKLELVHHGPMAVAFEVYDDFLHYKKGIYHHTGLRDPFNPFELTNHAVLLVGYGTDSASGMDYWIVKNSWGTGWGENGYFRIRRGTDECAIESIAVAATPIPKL

Each target was assayed with CN(C)CC(=O)Nc1ccc2[nH]c(=O)c3ccccc3c2c1 (assay: log2 fold change, soluble protein after heating vs DMSO (PISA); higher = thermal stabilisation; K562 cells, 10 uM, 30 min; active = over 0.2 and 3.5 SD of the protein, either way, in both replicates (recomputed)).
Outline: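 Thermal stability values are relative to control samples and come from duplicates. They are expressed as log2 fold changes. For measurement, K562 cells (2×10^6 cells/mL) received 10 μM compound for 30 min, and aliquots were heated for 3 min over 48°C-58°C, pooled, and extracted at 4°C in PBS with 0.5% NP-40. Soluble protein, the supernatant after 21,000xg for 90 min, was quantified by TMTpro 16plex LC-MS/MS with equalised channel sums.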

log2 fold change, inactive:
DCTN5 (UniProt Q9BTE1) -0.023
CTU1 (UniProt Q7Z7A3) 0.065
CYSTM1 (UniProt Q9H1C7) 0.01
CYB5A (UniProt P00167) 0.049
DCUN1D1 (UniProt Q96GG9) 0.03
CYP46A1 (UniProt Q9Y6A2) -0.023
DCAF6 isoform 3 (UniProt Q58WW2) -0.035
CSRP3 (UniProt P50461) -0.072
DCAF4L2 (UniProt Q8NA75) 0.007
DBNL isoform 3 (UniProt Q9UJU6) 0.011
CTSZ (UniProt Q9UBR2) -0.026
DCTN1 isoform 4 (UniProt Q14203) 0.052
CTSS (UniProt P25774) -0.021
CYBA (UniProt P13498) -0.02
CT55 (UniProt Q8WUE5) 0.072
DCAF13 (UniProt Q9NV06) -0.166
CSRP2 (UniProt Q16527) -0.045
DBT (UniProt P11182) -0.14
DBN1 isoform 3 (UniProt Q16643) -0.047
CTSH (UniProt P09668) 0.001
DCP2 (UniProt Q8IU60) -0.069
CTSC (UniProt P53634) 0.146
DAXX (UniProt Q9UER7) -0.077

Quoted at random: 2 entries already listed
log2 fold change, inactive:
DCAF6 isoform 3 (UniProt Q58WW2) -0.035
CYBA (UniProt P13498) -0.02
